From article PMC7819943, “Rice protein-binding microarrays: a tool to detect cis-acting elements near promoter regions in rice”
Some of the results follow.

By UniProt entry, the sequences of proteins in these tests, tags left out.
UniProt Q0JBA9, entry or part of it: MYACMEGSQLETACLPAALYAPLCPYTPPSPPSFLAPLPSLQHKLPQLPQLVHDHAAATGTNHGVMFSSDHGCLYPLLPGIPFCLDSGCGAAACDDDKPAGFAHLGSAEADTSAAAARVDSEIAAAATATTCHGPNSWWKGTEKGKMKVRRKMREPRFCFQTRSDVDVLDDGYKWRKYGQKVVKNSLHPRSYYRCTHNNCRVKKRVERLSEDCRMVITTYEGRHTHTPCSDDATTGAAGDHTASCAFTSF

These sequences were tested against OsWRKY34 (Oryza sativa, UniProt Q0JBA9 1-250) (assay: protein-binding microarray (RPBM); PBS, 2% BSA, 51.3 ng/ul salmon testes DNA, 50 uM zinc acetate, 200 nM TF, 25 C, 1 h; high values mean tight binding). Details: protein: recombinant; tags: N-terminal polyhistidine and DsRed monomer fusion (pET32a); label: CyDye5-dUTP incorporated in the synthesized complementary strand; 3' TTTTT single-stranded linker to array surface; dsDNA, one strand shown.
Method in brief: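 Per-feature fluorescence intensity (arbitrary units), read on an Axon 4000B scanner, is the binding signal. Transcription factors carrying an N-terminal polyhistidine tag and DsRed fusion were expressed in E. coli BL21-CodonPlus and purified on Ni–NTA. A custom Agilent array, made double-stranded by primer extension with Cy5-dUTP and blocked with 2% BSA, was incubated with 200 nM protein in PBS, 2% BSA, salmon testes DNA and 50 µM zinc acetate at 25 °C for 1 h and then washed.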
“GACGAAGCCAAGTTGGCCCTGTAGCTGACCCATGCTGTGACGGAGTCACCTAGTGCAG” was tested, and the binding signal was 9030 fluorescence intensity (a.u.).
With “CTCGCATTTCCCAGCTCGGATCCTCTTCTGACTTCTCTCTCGGAGTCACCTAGTGCAG” the binding signal was 8710 fluorescence intensity (a.u.).
In the case of “TATTTTTCATTGAAGTTTATTTTTCAGCCTTTGTTTTTAGCGGAGTCACCTAGTGCAG”, the binding signal is reported as 8350 fluorescence intensity (a.u.).
With “CTCTTTCTTTCTTTCTTGCCGTTTTTCCTCTCTGCTTGTACGGAGTCACCTAGTGCAG” the binding signal was 11700 fluorescence intensity (a.u.).
For “ATTTTTCTGGTTATTTATGTACAAGTAGCCTCTATATGTTCGGAGTCACCTAGTGCAG”, the binding signal was 10300 fluorescence intensity (a.u.).
With “CACATTTTTTCACCTACCACACCTCTACCCTAACACAGCACGGAGTCACCTAGTGCAG” the binding signal was 8430 fluorescence intensity (a.u.).
For “AATCCGTACATAATCCTTCAGCCGTATAGCAACTCGTTTCCGGAGTCACCTAGTGCAG”, the binding signal was 8320 fluorescence intensity (a.u.).
“TTTCCACACCGTCCTCAGTAAACAACCGATACCATCCTTACGGAGTCACCTAGTGCAG” was tested, and the binding signal was 8430 fluorescence intensity (a.u.).
In the case of “CGTTTTTTTTTTGCAATTTTTTCCATGGCTATTGCTAACCCGGAGTCACCTAGTGCAG”, the binding signal is reported as 12200 fluorescence intensity (a.u.).
“CGCACCATCTCTTTTCTCCTCTTCTCTGTTATCATCGTATCGGAGTCACCTAGTGCAG” was tested, and the binding signal was 8860 fluorescence intensity (a.u.).
With “GTTAGATCATTGCACTCCGTCTCTTCGTCTCCTCGAGCGCCGGAGTCACCTAGTGCAG” the binding signal was 8230 fluorescence intensity (a.u.).
With “AAATTAATCTATGTTACCAAATTGTTTTTCATATTTTTTTCGGAGTCACCTAGTGCAG” the binding signal was 8220 fluorescence intensity (a.u.).
“ATGGTTGGTTCTTGTGTGTCCCTAAGCGTGAAAAAAATATCGGAGTCACCTAGTGCAG” was tested, and the binding signal was 11600 fluorescence intensity (a.u.).
With “CTCTCCCCTCTCCCCGAGACAACCAATCGCCACCGCACACCGGAGTCACCTAGTGCAG” the binding signal was 8290 fluorescence intensity (a.u.).
For “CATAGAAATATCTTCATCTCAGTTCGTTGTTTTTTTTATTCGGAGTCACCTAGTGCAG”, the binding signal was 10500 fluorescence intensity (a.u.).
For “GAGCACCACGCGAACACTAGCAATAGTTCTTTCTTCTTTTCGGAGTCACCTAGTGCAG”, the binding signal was 8400 fluorescence intensity (a.u.).
With “ACAAGTTGACTCGTGACGACGGCGACTCCATCCGACCCACCGGAGTCACCTAGTGCAG” the binding signal was 8620 fluorescence intensity (a.u.).
For “GAACCTGTCTACATCGGCCGTGTCTCGTGCACTTGCTCTCCGGAGTCACCTAGTGCAG”, the binding signal was 10700 fluorescence intensity (a.u.).
With “TGTGTTTTTCCTATGCTCTATCCAAACGATTATTCCTACCCGGAGTCACCTAGTGCAG” the binding signal was 8650 fluorescence intensity (a.u.).
In the case of “TCCATCATCGTCGTCTCTGTGTGTGTCTGTGTGTGTGTGTCGGAGTCACCTAGTGCAG”, the binding signal is reported as 17900 fluorescence intensity (a.u.).
For “AATGATGTTGTTGACTTTTAAAATAACGTATGGCCGTTCACGGAGTCACCTAGTGCAG”, the binding signal was 8770 fluorescence intensity (a.u.).
In the case of “ATGTTCAATTTAATTGCTGTTTGTTACCTTTTGCATGGAGCGGAGTCACCTAGTGCAG”, the binding signal is reported as 8270 fluorescence intensity (a.u.).
“TTTAGCTGACCTGGCCTGATGTAGGGTGTTTAATTTTTCTCGGAGTCACCTAGTGCAG” was tested, and the binding signal was 8500 fluorescence intensity (a.u.).
“ACATTTCCGCATCATAGTTCATCCCGCTCCTCGTCTCCTCCGGAGTCACCTAGTGCAG” was tested, and the binding signal was 10700 fluorescence intensity (a.u.).
“TCTCCGTCTTTTTTATGGATTTTGAACCTACCATTCTCGTCGGAGTCACCTAGTGCAG” was tested, and the binding signal was 9370 fluorescence intensity (a.u.).
“TGTTCTCTTCCCCGTGCTGTTCGAATGAGTCTCCGTATTACGGAGTCACCTAGTGCAG” was tested, and the binding signal was 9260 fluorescence intensity (a.u.).
“CCTCTCCGTCTTCCCAGATCTGCTTCTTGCCCACCATTCCCGGAGTCACCTAGTGCAG” was tested, and the binding signal was 11000 fluorescence intensity (a.u.).
With “TGTTACTCCGTATTCTGTTTCTTTGATTCGGCCTGTCAGCCGGAGTCACCTAGTGCAG” the binding signal was 11400 fluorescence intensity (a.u.).
In the case of “ATGCACTTCCACATCTTTTCGCTTATACTTATACTTATCACGGAGTCACCTAGTGCAG”, the binding signal is reported as 10500 fluorescence intensity (a.u.).
For “ATGTCCAATTAAGATCCACCAGTACCTTTTTAGCGTATTTCGGAGTCACCTAGTGCAG”, the binding signal was 8890 fluorescence intensity (a.u.).
In the case of “GTCGAGGCGGCGGCGGCGGGGCGCGGAGTGAGGTGGGTGCCGGAGTCACCTAGTGCAG”, the binding signal is reported as 8640 fluorescence intensity (a.u.).
In the case of “TTTTTTATACTTCTCTCCACTTCGCACCAAACTATTTTATCGGAGTCACCTAGTGCAG”, the binding signal is reported as 8280 fluorescence intensity (a.u.).
With “TCTCATATTTATATCCCATCAACTTGCAACTCTTCATTCCCGGAGTCACCTAGTGCAG” the binding signal was 8850 fluorescence intensity (a.u.).
In the case of “ATACTCGAGATGGGCGCTTGGTACTTGCATGTTTCCATTCCGGAGTCACCTAGTGCAG”, the binding signal is reported as 8680 fluorescence intensity (a.u.).
With “CTCTGTTTCCTAATCCTCCATTTTTCATCATATTCCTGCACGGAGTCACCTAGTGCAG” the binding signal was 8630 fluorescence intensity (a.u.).
For “TTTTCAGTCATCAACTACTAGTACTTTTCAATTTTCCTACCGGAGTCACCTAGTGCAG”, the binding signal was 9010 fluorescence intensity (a.u.).
With “GCCTTTTATACTCCATATATACTTCTACTCCTACTTCCCTCGGAGTCACCTAGTGCAG” the binding signal was 10400 fluorescence intensity (a.u.).
For “CTTCATTGTTAAGTATACTTTCATGTACACATATAGTTTTCGGAGTCACCTAGTGCAG”, the binding signal was 11100 fluorescence intensity (a.u.).
In the case of “CCGCATTTCCTTTCCCGTATCCCGCAGAGCAGAAGCACACCGGAGTCACCTAGTGCAG”, the binding signal is reported as 8120 fluorescence intensity (a.u.).
For “TTTTTCATCTTGTCCGTTCCTCACGTCACCTTGCTGCCCTCGGAGTCACCTAGTGCAG”, the binding signal was 10600 fluorescence intensity (a.u.).
“CCATTTTACTGCTGTTGCATGCACAACTTATATAACAAACCGGAGTCACCTAGTGCAG” was tested, and the binding signal was 10100 fluorescence intensity (a.u.).
“TTCGTTGCTTGCCGCTCTATAAATTTCCAGCTTCCTTTCGCGGAGTCACCTAGTGCAG” was tested, and the binding signal was 8170 fluorescence intensity (a.u.).
